Test systems include OR6K2 clone 1041; OR6K3 clone 1485; OR6K6 clone 1348; OR6K6 clone 1392; OR6M1 clone 1182; OR6N2 clone 1027; OR6P1 clone 1034.
Holding throughout (test): odorant receptor activation (CRE luciferase / Renilla) (fold of no-odor wells); higher = more activation
What all share (details): 100 µM

The subject of assay [1] is OR6J1 R121H/T124A/R226H/P250S/L274S/V279L clone 1714.
Assay [2] concerns OR6K3 P228S/P248L clone 1045.
The subject of assay [3] is OR6N1 I194T/F245L/Q261R/R293H clone 1038.

The structures appear in SMILES notation. Values joined by “and” are separate entries in the source; they are usually repeats but may differ in a detail not shown here. Equal values may be shown once. Some of the results follow. Single wells; the ratio to wells without odorant was worked out here, and repeats agree poorly.

The source of these data is the odorant receptor screen of Mainland et al. (2015).

For the compound `C=CCc1ccc(OC)c(OC)c1` [eugenol methyl ether], the odorant receptor activation in assay [1] was 0.841; with OR6K2 clone 1041 it was 1.79; in [2] it was 1.43; in the assay on OR6K3 clone 1485, 1.71; in the assay with OR6K6 clone 1348 it was 1.35; with OR6K6 clone 1392 it was 1.6. For the same compound, the odorant receptor activation with OR6M1 clone 1182 amounted to 1.54; in [3], 1.4; in the assay with OR6N2 clone 1027 it was 1.47; in the assay with OR6P1 clone 1034, 1.28.

Turning to `CCCCCCOC(=O)CCC` [hexyl butyrate], the odorant receptor activation in [1] was 0.881; in the assay on OR6K2 clone 1041, 0.654; in assay [2], 1.68; in the assay with OR6K3 clone 1485 it was 1.02 and 0.98; with OR6K6 clone 1348, 1.24 and 0.97; with OR6K6 clone 1392, 0.806. The odorant receptor activation in the assay with OR6M1 clone 1182 worked out at 0.931; in [3], 0.486; with OR6N2 clone 1027, 1.04; with OR6P1 clone 1034, 0.476.

For the compound `O=C1CCCCCCCCCCCC(=O)OCCO1` [ethylene brassylate], the odorant receptor activation is 0.855 in assay [1]; 1.89 in the assay on OR6K2 clone 1041; 2.06 in [2]; 1.41 with OR6K3 clone 1485; 1.31 in the assay on OR6K6 clone 1348; 2.02 with OR6K6 clone 1392. The odorant receptor activation in the assay on OR6M1 clone 1182 came out at 1.61; in assay [3], 1.46; in the assay with OR6N2 clone 1027 it was 1.46; in the assay on OR6P1 clone 1034 it was 1.71.

For `C=C(C)C1CC=CCC1` (stereo not given) [r-limonene], the odorant receptor activation in assay [1] is 0.862; with OR6K2 clone 1041, 1.18 and 0.914; in [2], 1.31 and 1.29; with OR6K3 clone 1485, 1.02 and 0.483 and 0.894; in the assay with OR6K6 clone 1348, 0.792 and 0.72 and 0.571; with OR6K6 clone 1392, 1.44 and 0.978. The odorant receptor activation in the assay with OR6M1 clone 1182 was 0.778 and 0.357; in assay [3], 1.12 and 1.25; with OR6N2 clone 1027, 1.09 and 1.13; with OR6P1 clone 1034, 1.33 and 1.57.

With `CC12CCC(C1)C(C)(C)C2=O` (stereo not given) [fenchone], the odorant receptor activation came out at 0.767 in assay [1]; 1.31 in the assay with OR6K2 clone 1041; 1.08 in assay [2]; 1.39 in the assay on OR6K3 clone 1485; 1.06 with OR6K6 clone 1348; 0.867 in the assay with OR6K6 clone 1392. Besides, the odorant receptor activation in the assay on OR6M1 clone 1182 worked out at 0.991; in assay [3] it was 0.91; in the assay with OR6N2 clone 1027, 0.925; with OR6P1 clone 1034 it was 0.899.

With `COc1cc(C=O)ccc1O` [vanillin], the odorant receptor activation in [1] is 1.03; with OR6K2 clone 1041, 0.958; in assay [2] it was 1.13; with OR6K3 clone 1485, 1.09; with OR6K6 clone 1348 it was 1.03; in the assay with OR6K6 clone 1392, 1.06. Also, the odorant receptor activation in the assay on OR6M1 clone 1182 came to 1.12; in assay [3] it was 0.981; in the assay with OR6N2 clone 1027, 0.838; in the assay on OR6P1 clone 1034 it was 0.999.

Regarding `COc1ccccc1O` [guaiacol], the odorant receptor activation in assay [1] was 0.991; in the assay with OR6K2 clone 1041, 4.5; in [2], 1.25; in the assay with OR6K3 clone 1485, 1.19 and 1.36; with OR6K6 clone 1348 it was 0.733 and 0.805; with OR6K6 clone 1392, 0.817. Further, the odorant receptor activation in the assay with OR6M1 clone 1182 was found to be 0.865; in assay [3], 0.706; in the assay on OR6N2 clone 1027, 2.02; with OR6P1 clone 1034, 1.47.

Consider `CC1CCC(C(C)C)C(O)C1` (single isomer, unassigned; (-)) [(-)-menthol], for which the odorant receptor activation in assay [1] was 1.15; in the assay on OR6K2 clone 1041 it was 2.83; in assay [2] it was 2.49; in the assay on OR6K3 clone 1485 it was 3.69; in the assay on OR6K6 clone 1348, 0.585; with OR6K6 clone 1392, 0.895. Besides, the odorant receptor activation in the assay with OR6M1 clone 1182 worked out at 1.16; in assay [3] it was 3.27; in the assay with OR6N2 clone 1027, 3.6; with OR6P1 clone 1034, 2.72.

As for `c1cnccn1` [pyrazine], the odorant receptor activation in assay [1] worked out at 0.787; in the assay with OR6K2 clone 1041 it was 1.11; in [2], 0.858; in the assay with OR6K3 clone 1485, 0.76; with OR6K6 clone 1348, 0.743; in the assay with OR6K6 clone 1392, 1.2. Further, the odorant receptor activation with OR6M1 clone 1182 was 0.851; in assay [3], 0.787; with OR6N2 clone 1027, 0.894; with OR6P1 clone 1034 it was 1.07.

With `CCCCO` [1-butanol], the odorant receptor activation in assay [1] was 1.06; in the assay on OR6K2 clone 1041, 3.11; in [2], 1.96; with OR6K3 clone 1485 it was 1.22; in the assay with OR6K6 clone 1348, 0.681; with OR6K6 clone 1392, 0.993. Besides, the odorant receptor activation in the assay with OR6M1 clone 1182 worked out at 0.833; in assay [3] it was 2.44; in the assay on OR6N2 clone 1027, 3.08; in the assay on OR6P1 clone 1034 it was 3.66.

With `CCCCCCCC=CC=O` [2-decenal], the odorant receptor activation in assay [1] is 1.23; with OR6K2 clone 1041, 6.97; in assay [2] it was 4.08; in the assay with OR6K3 clone 1485, 1.49; with OR6K6 clone 1348, 0.839; in the assay with OR6K6 clone 1392, 0.981. The odorant receptor activation with OR6M1 clone 1182 is 0.873; in assay [3], 19.5; in the assay with OR6N2 clone 1027, 14.7; with OR6P1 clone 1034, 25.2.

As for `CC12CCC(CC1)C(C)(C)O2` [cineole], the odorant receptor activation is 0.81 in assay [1]; 0.878 with OR6K2 clone 1041; 0.79 in assay [2]; 0.736 with OR6K3 clone 1485; 0.966 with OR6K6 clone 1348; 0.153 with OR6K6 clone 1392. Also, the odorant receptor activation came to 0.794 in the assay with OR6M1 clone 1182, 0.816 in assay [3], 0.683 in the assay on OR6N2 clone 1027 and 1.04 with OR6P1 clone 1034.

With `CC/C=C\CCO` [cis-3-hexen-1-ol], the odorant receptor activation is 0.921 in [1]; 1.17 with OR6K2 clone 1041; 0.985 in assay [2]; 0.798 in the assay with OR6K3 clone 1485; 0.982 in the assay on OR6K6 clone 1348; 0.193 with OR6K6 clone 1392. For the same compound, the odorant receptor activation with OR6M1 clone 1182 came out at 0.904; in [3] it was 0.723; in the assay with OR6N2 clone 1027, 0.756; in the assay with OR6P1 clone 1034, 1.18.
